Consider one substance from US20050074826A1.

Amino acid sequences for entries named in this document (tags omitted). Residues count along the entry.
UniProt P61073: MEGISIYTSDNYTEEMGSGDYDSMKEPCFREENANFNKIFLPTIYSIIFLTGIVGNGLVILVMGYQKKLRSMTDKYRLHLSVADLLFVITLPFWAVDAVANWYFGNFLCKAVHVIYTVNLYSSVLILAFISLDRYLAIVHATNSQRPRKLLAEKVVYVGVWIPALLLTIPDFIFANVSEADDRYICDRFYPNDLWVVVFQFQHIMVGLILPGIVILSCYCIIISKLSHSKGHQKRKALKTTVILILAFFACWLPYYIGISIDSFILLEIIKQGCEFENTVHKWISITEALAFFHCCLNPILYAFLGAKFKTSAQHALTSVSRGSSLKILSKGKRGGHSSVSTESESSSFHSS
UniProt P40224, residues 22-89: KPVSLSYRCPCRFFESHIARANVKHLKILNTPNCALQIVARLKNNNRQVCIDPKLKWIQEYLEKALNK

These are yes or no findings as the source states them, for the method shown. Some binding calls cover weakened binding; strength is not graded here.

This test deals with CXCR4, human (human) (UniProt P61073). Kind of test: DisplaceMax displacement of 125I SDF-1α on CEM-NKr cells (CXCR4). Background: In a radioligand displacement assay an active substance lowers the binding of a labelled ligand.

“mouse SDF-1 (from UniProt P40224 22-89) (ligand)”: the binding entry is given as “binds”.
